Some results were stated once for a whole list of compounds, not compound by compound.
What follows are compounds tested against T1, Aurora A, Aurora B, EGF-R, ERBB2, PDGFR, IGF1-R, VEGF-R2, VEGF-R3, EPHB4, Tie2, and SRC (assay: Protein kinase assay (33PanQinase Activity Assay)). Conditions: on at least one kinase selected from Aurora A, VEGF-R2, VEGF-R3, EPHB4, Tie2, SRC, or on at least two kinases from at least two different molecular mechanisms of tumor progression, kinase not specified per compound.
T1 construct: All protein kinases were expressed in Sf9 insect cells as human recombinant GST-fusion proteins or as His-tagged proteins by means of the baculovirus expression system
Assay type: biochemical, human

For `COc1cc2ncnc(Nc3ccc4nc(NC(=O)c5ccccc5)oc4c3)c2cc1OC` [Example 1, N-[6-(6,7-Dimethoxyquinazolin-4-ylamino)benzoxazol-2-yl]benzamide], which IC50 is on record?
Its IC50 is under 500 nM.

How did the IC50 turn out when `COc1cc2ncnc(Nc3ccc4nc(NC(=O)c5ccccc5)sc4c3)c2cc1OC` [Example 2] was run?
Its IC50 is under 500 nM.

How did the IC50 turn out when `COc1cc2c(Nc3ccc4nc(NC(=O)c5ccccc5)sc4c3)ncnc2cc1OCCCN1CCN(C)CC1` [Example 5, N-(6-{6-Methoxy-7-[3-(4-methylpiperazin-1-yl)propoxy]quinazolin-4-yl-amino}benzothiazol-2-yl)benzamide] was run?
The IC50 was under 500 nM.

With `COc1cc2ncnc(Nc3ccc4nc(NC(=O)c5ccccc5)sc4c3)c2cc1OCCCN1CCN(C)CC1` [Example 6, N-(6-{7-Methoxy-6-[3-(4-methylpiperazin-1-yl)propoxy]quinazolin-4yl-amino}benzothiazol-2-yl)benzamide] as the compound, how does the IC50 read?
Its IC50 is under 500 nM.

Which IC50 does the source give for `Cc1cc(Nc2ccnc(Nc3ccc4nc(NC(=O)c5ccccc5)sc4c3)n2)n[nH]1` [Example 9, N-{6-[4-(5-Methylpyrazol-3-ylamino)pyrimidin-2-ylamino]benzothiazol-2-yl}benzamide] here?
Its IC50 is under 500 nM.

How did the IC50 turn out when `O=C(Nc1nc2cc(Nc3ncnc4[nH]cnc34)ccc2s1)c1ccccc1` [Example 11, N-[5-(Purin-6-ylamino)benzothiazol-2-yl]benzamide] was run?
The IC50 was under 500 nM.

For `COc1cc2c(Nc3ccc4nc(NC(=O)c5ccccc5)oc4c3)ncnc2cc1OCCCN1CCN(C)CC1` [Example 15, N-(6-{6-Methoxy-7-[3-(4-methyl-piperazin-1-yl)-propoxy]-quinazolin-4-ylamino}-benzooxazol-2-yl)-benzamide], which IC50 is on record?
The IC50 was under 500 nM.

How did the IC50 turn out when `COc1cc2c(Nc3ccc4sc(NC(=O)c5ccccc5)nc4c3)ncnc2cc1OCCCN1CCN(C)CC1` [Example 17, N-(5-{6-Methoxy-7-[3-(4-methyl-piperazin-1-yl)-propoxy]-quinazolin-4-ylamino}-benzothiazol-2-yl)-benzamide] was run?
Its IC50 is under 500 nM.

How did the IC50 turn out when `COc1cc2c(Nc3ccc4nc(NC(=O)c5cccc(Cl)c5)sc4c3)ncnc2cc1OCCCN1CCN(C)CC1` [Example 18, 3-Chloro-N-(6-{6-methoxy-7-[3-(4-methyl-piperazin-1-yl)-propoxy]-quinazolin-4-ylamino}-benzothiazol-2-yl)-benzamide] was run?
Its IC50 is under 500 nM.

For `COc1cc2c(Nc3ccc4nc(NC(=O)Nc5ccc(Cl)c(C(F)(F)F)c5)sc4c3)ncnc2cc1OCCCN1CCN(C)CC1` [Example 20, 1-(4-Chloro-3-trifluoromethyl-phenyl)-3-(6-{6-methoxy-7-[3-(4-methyl-piperazin-1-yl)-propoxy]-quinazolin-4-ylamino}-benzothiazol-2-yl)urea], which IC50 is on record?
The IC50 was under 500 nM.

`COc1cc2c(Nc3ccc4sc(NC(=O)Nc5ccc(Cl)c(C(F)(F)F)c5)nc4c3)ncnc2cc1OCCCN1CCN(C)CC1` [Example 21, 1-(4-Chloro-3-trifluoromethyl-phenyl)-3-(5-{6-methoxy-7-[3-(4-methyl-piperazin-1-yl)-propoxy]-quinazolin-4-ylamino}-benzothiazol-2-yl)-urea] was tested. Which IC50 did it give?
Its IC50 is under 500 nM.

For `COc1ccc(C)cc1NC(=O)Nc1nc2ccc(Nc3ncnc4cc(OCCCN5CCN(C)CC5)c(OC)cc34)cc2s1` [Example 22, 1-(2-Methoxy-5-methyl-phenyl)-3-(6-{6-methoxy-7-[3-(4-methyl-piperazin-1-yl)-propoxy]-quinazolin-4-ylamino}-benzothiazol-2-yl)-urea], which IC50 is on record?
The IC50 was under 500 nM.
